Measured values as given in patent publication US6878524B2, “Reagents and methods for detection and characterization of protein-protein interactions, nuclear export and localization sequences and inducible Gal4p-mediated gene expression in yeast” (priority 2001, dated 2005).
At least one compound was matched to its structure with a doubt left.

Molecular target: T1, interaction between a Gal80-Fpr1p fusion and plasma membrane-localized Myr-Can1p (Saccharomyces cerevisiae, UniProt P20081)
T1 construct: expressed in transfected cells; host or cells: Saccharomyces cerevisiae strain ScGP786 (gal80Δ gal3Δ gal1Δ, chromosomal FPR1 replaced by ADE1)
T1 sequence (P20081 2-114): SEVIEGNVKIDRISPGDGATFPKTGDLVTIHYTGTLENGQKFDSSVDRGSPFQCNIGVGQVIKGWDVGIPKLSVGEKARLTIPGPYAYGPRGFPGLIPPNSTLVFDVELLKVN
Test: 80-Trap galactose-inducible HIS3 reporter colony growth assay
Assay type: cell-based, yeast
Conditions: gal80Δ gal3Δ gal1Δ strain ScGP786 carrying Gal80-Fpr1 and Myr-Can1p plasmids; FK506 at 0.25 μg/mL; agar lacking histidine, tryptophan and uracil

C=CC[C@@H]1/C=C(\C)C[C@H](C)C[C@H](OC)[C@H]2O[C@@](O)(C(=O)C(=O)N3CCCC[C@H]3C(=O)O[C@H](/C(C)=C/[C@@H]3CC[C@@H](O)[C@H](OC)C3)[C@H](C)[C@@H](O)CC1=O)[C@H](C)C[C@@H]2OC [FK506]
Induction of the galactose-inducible HIS3 reporter gene (colony growth on plates lacking histidine): evident growth only on the plate containing FK506
